The target of this test is SARS-CoV nucleocapsid protein (yeast two-hybrid fusion) (SARS-CoV) (UniProt P59595). Kind of test: two-hybrid.

These are yes or no findings as the source states them, for the method shown. Some binding calls cover weakened binding; strength is not graded here. Tags and fused reporters may be left off the sequences shown.

B1: cytochrome p450 subfamily 4F polypeptide 3 (CYP4F3A) (yeast two-hybrid fusion) (protein, UniProt Q08477-1 1-520)
chain: MPQLSLSSLGLWPMAASPWLLLLLVGASWLLARILAWTYTFYDNCCRLRCFPQPPKRNWFLGHLGLIHSSEEGLLYTQSLACTFGDMCCWWVGPWHAIVRIFHPTYIKPVLFAPAAIVPKDKVFYSFLKPWLGDGLLLSAGEKWSRHRRMLTPAFHFNILKPYMKIFNESVNIMHAKWQLLASEGSARLDMFEHISLMTLDSLQKCVFSFDSHCQEKPSEYIAAILELSALVTKRHQQILLYIDFLYYLTPDGQRFRRACRLVHDFTDAVIQERRRTLPSQGVDDFLQAKAKSKTLDFIDVLLLSKDEDGKKLSDEDIRAEADTFMFEGHDTTASGLSWVLYHLAKHPEYQERCRQEVQELLKDREPKEIEWDDLAQLPFLTMCIKESLRLHPPVPAVSRCCTQDIVLPDGRVIPKGIICLISVFGTHHNPAVWPDPEVYDPFRFDPKNIKERSPLAFIPFSAGPRNCIGQAFAMAEMKVVLGLTLLRFRVLPDHTEPRRKPELVLRAEGGLWLRVEPLS
B1: the binding entry was “binds”.

The values above are taken from article PMC3163911.
